The results in this text go back to the supplement of paper PMC10849652.

The chains behind the UniProt entries cited, without tags or fusion partners. Where a name states a change or a piece, a line headed by the entry shows the natural chain unless it says otherwise.
UniProt P30101, whole entry, looked up: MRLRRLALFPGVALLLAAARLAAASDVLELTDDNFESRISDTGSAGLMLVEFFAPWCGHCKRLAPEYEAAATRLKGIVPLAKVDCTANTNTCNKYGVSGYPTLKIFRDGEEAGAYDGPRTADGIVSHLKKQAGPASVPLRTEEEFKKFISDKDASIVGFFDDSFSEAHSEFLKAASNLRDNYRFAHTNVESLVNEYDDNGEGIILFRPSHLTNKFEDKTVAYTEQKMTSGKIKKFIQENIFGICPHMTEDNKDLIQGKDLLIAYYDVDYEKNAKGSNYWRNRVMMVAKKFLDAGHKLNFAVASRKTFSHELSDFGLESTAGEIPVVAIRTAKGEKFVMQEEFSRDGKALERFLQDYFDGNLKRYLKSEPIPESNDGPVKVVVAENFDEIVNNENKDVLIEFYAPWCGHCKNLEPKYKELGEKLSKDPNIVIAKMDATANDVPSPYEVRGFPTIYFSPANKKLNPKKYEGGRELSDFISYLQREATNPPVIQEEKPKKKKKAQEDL
UniProt O60925, whole entry, looked up: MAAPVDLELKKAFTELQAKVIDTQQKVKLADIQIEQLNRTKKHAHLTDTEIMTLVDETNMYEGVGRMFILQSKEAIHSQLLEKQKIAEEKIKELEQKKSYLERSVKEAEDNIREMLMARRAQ
UniProt Q01813: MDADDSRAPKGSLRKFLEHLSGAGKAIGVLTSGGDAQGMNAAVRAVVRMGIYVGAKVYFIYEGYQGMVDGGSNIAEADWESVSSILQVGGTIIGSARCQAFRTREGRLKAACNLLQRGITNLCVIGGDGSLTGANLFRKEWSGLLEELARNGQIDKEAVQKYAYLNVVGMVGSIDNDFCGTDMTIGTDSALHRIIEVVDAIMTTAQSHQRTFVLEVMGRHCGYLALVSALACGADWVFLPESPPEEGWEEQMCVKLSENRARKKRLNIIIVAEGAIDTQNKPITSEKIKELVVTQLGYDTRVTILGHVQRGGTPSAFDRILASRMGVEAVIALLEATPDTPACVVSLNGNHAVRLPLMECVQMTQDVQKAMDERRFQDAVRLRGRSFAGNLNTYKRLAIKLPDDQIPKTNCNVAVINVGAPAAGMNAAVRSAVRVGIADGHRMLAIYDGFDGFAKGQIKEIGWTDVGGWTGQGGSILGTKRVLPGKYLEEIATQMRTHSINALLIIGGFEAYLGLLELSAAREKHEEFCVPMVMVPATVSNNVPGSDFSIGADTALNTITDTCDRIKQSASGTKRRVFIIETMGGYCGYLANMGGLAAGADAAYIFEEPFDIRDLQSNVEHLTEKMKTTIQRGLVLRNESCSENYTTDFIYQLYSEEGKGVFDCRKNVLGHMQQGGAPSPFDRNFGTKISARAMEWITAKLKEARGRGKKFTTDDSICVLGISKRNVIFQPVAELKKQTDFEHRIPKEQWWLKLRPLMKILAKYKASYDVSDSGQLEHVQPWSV
UniProt Q9H4Z3: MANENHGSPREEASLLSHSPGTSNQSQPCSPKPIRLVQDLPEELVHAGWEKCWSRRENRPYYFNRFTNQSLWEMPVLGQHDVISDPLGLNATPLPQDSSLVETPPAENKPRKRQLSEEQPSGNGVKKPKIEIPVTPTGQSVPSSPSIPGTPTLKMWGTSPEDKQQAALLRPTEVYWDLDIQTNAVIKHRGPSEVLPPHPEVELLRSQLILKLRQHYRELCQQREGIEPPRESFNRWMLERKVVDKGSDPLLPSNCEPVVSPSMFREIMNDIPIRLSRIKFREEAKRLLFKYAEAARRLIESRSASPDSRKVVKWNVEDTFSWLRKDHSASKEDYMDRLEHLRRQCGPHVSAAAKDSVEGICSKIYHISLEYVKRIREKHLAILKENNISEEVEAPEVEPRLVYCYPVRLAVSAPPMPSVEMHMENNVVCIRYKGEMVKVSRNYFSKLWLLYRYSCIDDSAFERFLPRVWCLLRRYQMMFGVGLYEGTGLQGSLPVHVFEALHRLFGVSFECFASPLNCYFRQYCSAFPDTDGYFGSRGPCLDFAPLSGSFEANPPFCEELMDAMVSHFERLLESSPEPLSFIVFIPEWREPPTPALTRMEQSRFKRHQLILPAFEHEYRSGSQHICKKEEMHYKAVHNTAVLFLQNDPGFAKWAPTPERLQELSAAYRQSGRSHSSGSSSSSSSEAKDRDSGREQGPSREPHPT
UniProt Q9NUG6, whole entry, looked up: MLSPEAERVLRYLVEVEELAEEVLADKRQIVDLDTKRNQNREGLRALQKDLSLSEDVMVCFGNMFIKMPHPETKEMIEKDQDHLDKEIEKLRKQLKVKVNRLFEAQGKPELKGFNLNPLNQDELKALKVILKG
UniProt Q13371: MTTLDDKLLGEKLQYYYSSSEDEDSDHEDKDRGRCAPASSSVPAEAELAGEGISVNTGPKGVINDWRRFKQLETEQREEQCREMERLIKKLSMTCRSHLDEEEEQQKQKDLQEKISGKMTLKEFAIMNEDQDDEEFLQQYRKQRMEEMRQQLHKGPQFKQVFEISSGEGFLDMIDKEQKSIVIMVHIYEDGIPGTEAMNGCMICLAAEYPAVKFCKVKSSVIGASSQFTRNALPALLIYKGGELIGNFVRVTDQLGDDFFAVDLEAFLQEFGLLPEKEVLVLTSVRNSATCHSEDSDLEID
UniProt Q9BRP1: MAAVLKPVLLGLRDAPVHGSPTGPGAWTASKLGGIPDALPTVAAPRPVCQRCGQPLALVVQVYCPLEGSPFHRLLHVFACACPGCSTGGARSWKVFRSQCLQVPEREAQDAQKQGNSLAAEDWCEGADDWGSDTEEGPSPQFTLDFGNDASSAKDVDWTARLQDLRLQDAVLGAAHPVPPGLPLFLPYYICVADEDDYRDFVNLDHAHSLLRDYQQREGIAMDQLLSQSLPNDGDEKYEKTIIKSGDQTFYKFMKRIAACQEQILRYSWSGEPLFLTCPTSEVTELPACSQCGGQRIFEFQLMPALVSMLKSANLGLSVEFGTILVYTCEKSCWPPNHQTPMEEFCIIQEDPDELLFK
UniProt Q8N0Y7: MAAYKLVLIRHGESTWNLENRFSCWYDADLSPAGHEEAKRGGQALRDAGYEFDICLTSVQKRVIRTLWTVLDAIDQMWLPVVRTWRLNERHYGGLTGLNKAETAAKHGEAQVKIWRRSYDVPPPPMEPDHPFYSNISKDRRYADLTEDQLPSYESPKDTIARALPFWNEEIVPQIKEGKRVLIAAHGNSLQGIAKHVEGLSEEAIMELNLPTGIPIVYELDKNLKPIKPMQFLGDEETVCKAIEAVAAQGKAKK
UniProt P61457: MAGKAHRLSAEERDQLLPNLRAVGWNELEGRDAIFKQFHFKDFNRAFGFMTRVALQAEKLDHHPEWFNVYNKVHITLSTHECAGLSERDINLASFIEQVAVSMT
UniProt Q99447: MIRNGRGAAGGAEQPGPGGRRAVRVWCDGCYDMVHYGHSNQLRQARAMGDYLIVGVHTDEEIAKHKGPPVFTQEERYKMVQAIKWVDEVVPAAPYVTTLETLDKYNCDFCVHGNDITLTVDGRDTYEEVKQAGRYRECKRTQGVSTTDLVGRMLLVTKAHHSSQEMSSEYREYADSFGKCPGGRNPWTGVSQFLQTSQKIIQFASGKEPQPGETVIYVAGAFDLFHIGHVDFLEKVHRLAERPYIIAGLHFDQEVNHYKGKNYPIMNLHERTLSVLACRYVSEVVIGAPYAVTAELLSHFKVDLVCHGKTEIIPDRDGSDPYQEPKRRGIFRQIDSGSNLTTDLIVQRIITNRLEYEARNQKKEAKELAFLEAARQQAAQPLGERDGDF
UniProt Q9HBI1: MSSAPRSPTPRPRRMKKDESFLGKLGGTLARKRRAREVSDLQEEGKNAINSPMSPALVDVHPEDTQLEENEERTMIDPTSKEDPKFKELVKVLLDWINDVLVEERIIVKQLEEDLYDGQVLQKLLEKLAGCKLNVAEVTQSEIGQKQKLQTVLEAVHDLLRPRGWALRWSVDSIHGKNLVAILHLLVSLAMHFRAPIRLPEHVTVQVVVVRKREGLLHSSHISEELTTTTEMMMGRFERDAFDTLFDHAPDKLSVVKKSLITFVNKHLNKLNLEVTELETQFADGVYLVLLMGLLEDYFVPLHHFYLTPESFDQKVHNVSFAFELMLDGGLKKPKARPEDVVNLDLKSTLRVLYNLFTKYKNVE
UniProt Q9UHV9, whole entry, looked up: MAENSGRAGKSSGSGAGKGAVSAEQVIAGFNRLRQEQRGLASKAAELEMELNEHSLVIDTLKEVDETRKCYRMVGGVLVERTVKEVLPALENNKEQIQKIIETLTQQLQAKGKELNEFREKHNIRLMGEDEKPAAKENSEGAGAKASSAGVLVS
UniProt Q9H6A9: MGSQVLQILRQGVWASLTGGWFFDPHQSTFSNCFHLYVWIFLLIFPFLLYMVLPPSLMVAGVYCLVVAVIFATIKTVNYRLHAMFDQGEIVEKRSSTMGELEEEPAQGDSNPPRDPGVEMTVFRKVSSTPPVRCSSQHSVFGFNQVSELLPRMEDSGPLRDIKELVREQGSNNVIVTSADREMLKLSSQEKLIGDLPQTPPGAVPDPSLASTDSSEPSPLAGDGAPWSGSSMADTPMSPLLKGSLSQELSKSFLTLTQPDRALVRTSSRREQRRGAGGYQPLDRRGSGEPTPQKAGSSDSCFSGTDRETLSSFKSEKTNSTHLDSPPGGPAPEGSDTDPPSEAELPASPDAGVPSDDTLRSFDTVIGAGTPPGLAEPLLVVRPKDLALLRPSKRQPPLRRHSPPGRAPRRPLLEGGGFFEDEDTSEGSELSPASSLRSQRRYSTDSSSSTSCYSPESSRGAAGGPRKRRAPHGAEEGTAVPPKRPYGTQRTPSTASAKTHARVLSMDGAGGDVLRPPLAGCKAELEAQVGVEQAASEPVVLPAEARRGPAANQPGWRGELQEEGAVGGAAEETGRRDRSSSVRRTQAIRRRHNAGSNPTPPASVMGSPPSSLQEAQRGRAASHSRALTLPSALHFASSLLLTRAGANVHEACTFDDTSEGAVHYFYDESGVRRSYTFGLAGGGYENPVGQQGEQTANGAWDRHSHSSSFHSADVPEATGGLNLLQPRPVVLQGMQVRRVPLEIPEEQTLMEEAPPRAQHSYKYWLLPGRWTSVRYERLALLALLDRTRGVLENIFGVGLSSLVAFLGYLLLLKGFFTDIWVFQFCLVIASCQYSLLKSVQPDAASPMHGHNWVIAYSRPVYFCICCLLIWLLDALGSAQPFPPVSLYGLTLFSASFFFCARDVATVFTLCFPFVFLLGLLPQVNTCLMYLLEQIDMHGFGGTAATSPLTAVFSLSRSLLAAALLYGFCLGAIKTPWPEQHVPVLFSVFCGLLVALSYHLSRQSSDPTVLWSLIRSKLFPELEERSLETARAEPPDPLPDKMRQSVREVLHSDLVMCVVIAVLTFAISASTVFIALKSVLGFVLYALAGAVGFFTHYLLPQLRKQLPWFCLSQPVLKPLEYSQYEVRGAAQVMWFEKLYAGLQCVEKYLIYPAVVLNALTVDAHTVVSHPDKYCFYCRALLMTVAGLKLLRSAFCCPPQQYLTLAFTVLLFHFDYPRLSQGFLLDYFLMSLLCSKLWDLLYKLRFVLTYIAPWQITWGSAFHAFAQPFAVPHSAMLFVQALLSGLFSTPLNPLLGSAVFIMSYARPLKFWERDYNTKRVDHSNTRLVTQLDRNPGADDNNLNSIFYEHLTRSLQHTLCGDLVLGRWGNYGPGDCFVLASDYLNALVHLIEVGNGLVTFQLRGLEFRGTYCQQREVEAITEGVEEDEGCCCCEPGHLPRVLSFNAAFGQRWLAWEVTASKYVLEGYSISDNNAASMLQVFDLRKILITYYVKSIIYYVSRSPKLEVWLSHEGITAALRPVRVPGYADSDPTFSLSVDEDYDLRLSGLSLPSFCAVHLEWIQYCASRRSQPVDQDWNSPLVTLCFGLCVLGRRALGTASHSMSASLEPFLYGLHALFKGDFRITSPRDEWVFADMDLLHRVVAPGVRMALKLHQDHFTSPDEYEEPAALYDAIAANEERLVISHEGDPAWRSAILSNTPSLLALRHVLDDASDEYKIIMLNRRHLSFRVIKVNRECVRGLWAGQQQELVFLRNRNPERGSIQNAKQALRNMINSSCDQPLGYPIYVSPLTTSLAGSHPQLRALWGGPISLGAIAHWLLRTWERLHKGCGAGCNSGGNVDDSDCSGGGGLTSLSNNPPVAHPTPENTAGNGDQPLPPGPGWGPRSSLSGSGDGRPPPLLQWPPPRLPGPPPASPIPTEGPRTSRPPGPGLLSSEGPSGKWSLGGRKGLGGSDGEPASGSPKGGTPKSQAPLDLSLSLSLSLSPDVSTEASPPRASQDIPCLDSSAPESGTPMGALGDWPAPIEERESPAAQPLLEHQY
UniProt Q9HBH1: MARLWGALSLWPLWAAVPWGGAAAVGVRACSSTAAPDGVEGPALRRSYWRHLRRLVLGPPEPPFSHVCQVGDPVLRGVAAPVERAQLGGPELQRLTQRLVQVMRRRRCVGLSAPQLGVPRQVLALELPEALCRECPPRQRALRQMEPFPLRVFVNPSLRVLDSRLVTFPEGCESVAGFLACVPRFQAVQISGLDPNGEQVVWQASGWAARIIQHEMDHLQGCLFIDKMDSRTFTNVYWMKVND

The list shows a part of the results.

Compound in the first assay: C1=CC=C(C=C1)[C@H](COC2=CC3=C(C=C2)NC(=O)N3)NC(=O)C4=CC=CN(C4=O)CC5=CC(=C(C=C5)F)F
Description: log2 fold change, soluble protein after heating vs DMSO (PISA); higher = thermal stabilisation; K562 lysate, 10 uM; active = over 0.2 and 3.5 SD of the protein, either way, in both replicates (recomputed). The method, boiled down: (§1)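 Dounce homogenisation of K562 pellets in PBS pH 7.4 with 1 mM MgCl2 produced a crude extract, used at 1 mg/mL protein. Exposure to 10 μM compound lasted 30 min, and aliquots were then heated for 3 min across 48°C-58°C, pooled and brought to 0.5% NP-40 at 4°C. The supernatant after 21,000xg for 90 min was quantified by TMTpro 16plex LC-MS/MS with channel sums equalised. Duplicate values are given as log-two fold change in thermal stability relative to solvent controls.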
As to PGGHG (UniProt Q32M88), the log2 fold change is inactive: 0.024.
With PDIA3 (UniProt P30101), the log2 fold change is inactive: 0.015.
On the same count and under the same terms, for PFDN1 (UniProt O60925) the value was inactive: 0.019; for PFKP (UniProt Q01813), inactive: -0.005; for PCIF1 (UniProt Q9H4Z3), inactive: -0.015.
In the case of PARN (UniProt O95453), the log2 fold change is inactive: -0.04.
Same read-out and setting: for PDRG1 (UniProt Q9NUG6) the value was inactive: 0.035.
For the target PDCL (UniProt Q13371), the log2 fold change is inactive: 0.05.
With PDCD2L (UniProt Q9BRP1), the log2 fold change is inactive: 0.015.
Turning to PGAM4 (UniProt Q8N0Y7), the log2 fold change is inactive: 0.031.
On to PCBD1 (UniProt P61457), for which the log2 fold change was inactive: -0.007.
With PCYT2 isoform 3 (UniProt Q99447), the log2 fold change is inactive: -0.017.
As to PARVB (UniProt Q9HBI1), the log2 fold change was inactive: -0.039.
As to PFDN2 (UniProt Q9UHV9), the log2 fold change is inactive: 0.044.
As for PBDC1 (UniProt Q9BVG4), the log2 fold change was inactive: 0.025.
On the same count and under the same terms, with PCNX3 (UniProt Q9H6A9) the figure was inactive: 0.223; with PDF (UniProt Q9HBH1), inactive: -0.056.

Compound in another assay: CC1=C(SC2=C1C(=N[C@H](C3=NN=C(N32)C)CC(=O)N)C4=CC=C(C=C4)Cl)C
Described as above. Summed up: as §1
PCCA (UniProt P05165): the log2 fold change is inactive: -0.021.
With PEX11B (UniProt O96011), the log2 fold change is inactive: -0.026.
As to PFKFB3 isoform 4 (UniProt Q16875), the log2 fold change was inactive: 0.047.
Consider PCNT (UniProt O95613), for which the log2 fold change is inactive: -0.016.
The same measure, in the same setting: for PEBP1 (UniProt P30086) the value was inactive: -0.009.
In the case of PARPBP (UniProt Q9NWS1), the log2 fold change is inactive: 0.001.
Take PCBP1 (UniProt Q15365): the log2 fold change was inactive: -0.012.
Consider PDPR (UniProt Q8NCN5), for which the log2 fold change is inactive: -0.025.
With PCF11 (UniProt O94913), the log2 fold change is inactive: 0.018.
Take PDIA6 isoform 2 (UniProt Q15084): the log2 fold change is inactive: -0.001.
Still for that read-out and setting: with PDAP1 (UniProt Q13442) the figure was inactive: 0.042.
As to PBK (UniProt Q96KB5), the log2 fold change was inactive: 0.006.
Regarding PCBP2 (UniProt H3BRU6), the log2 fold change was inactive: -0.15.
Same read-out and setting: for PER3 isoform 2 (UniProt P56645) the value was inactive: -0.029; for PELP1 (UniProt Q8IZL8), inactive: -0.083.
In the case of PDCD6IP (UniProt Q8WUM4), the log2 fold change was inactive: 0.086.
As for PDLIM7 (UniProt Q9NR12), the log2 fold change is inactive: 0.041.
Turning to PEX14 (UniProt O75381), the log2 fold change is inactive: 0.013.
As for PEX16 isoform 2 (UniProt Q9Y5Y5), the log2 fold change is inactive: 0.
As for PCYT1A (UniProt P49585), the log2 fold change is inactive: 0.037.
For the target PEX13 (UniProt Q92968), the log2 fold change was inactive: -0.013.
As to PAXBP1 (UniProt Q9Y5B6), the log2 fold change is inactive: -0.026.
Regarding PDLIM1 (UniProt O00151), the log2 fold change was inactive: -0.029.
As for PGGHG (UniProt Q32M88), the log2 fold change was inactive: 0.026.
The same measure, in the same setting: with PDIA3 (UniProt P30101) the figure was inactive: -0.004.
Still for that read-out and setting: with PFDN1 (UniProt O60925) the figure was inactive: -0.012.
In the case of PFKP (UniProt Q01813), the log2 fold change was inactive: 0.02.
For PCIF1 (UniProt Q9H4Z3), the log2 fold change was inactive: -0.013.
Turning to PARN (UniProt O95453), the log2 fold change is inactive: 0.002.
For PDRG1 (UniProt Q9NUG6), the log2 fold change is inactive: -0.048.
Consider PDCL (UniProt Q13371), for which the log2 fold change was inactive: -0.032.
On to PDCD2L (UniProt Q9BRP1), for which the log2 fold change was inactive: 0.016.
On to PGAM4 (UniProt Q8N0Y7), for which the log2 fold change is inactive: -0.01.
For PCBD1 (UniProt P61457), the log2 fold change was inactive: 0.011.
Regarding PCYT2 isoform 3 (UniProt Q99447), the log2 fold change is inactive: 0.04.
Same read-out and setting: for PARVB (UniProt Q9HBI1) the value was inactive: 0.037.
The same measure, in the same setting: for PFDN2 (UniProt Q9UHV9) the value was inactive: -0.055; for PBDC1 (UniProt Q9BVG4), inactive: -0.008; for PCNX3 (UniProt Q9H6A9), inactive: -0.053.
Take PDF (UniProt Q9HBH1): the log2 fold change was inactive: -0.007.

Compound in a further assay: CC1=C2C(=CC=C1)N=C(N(C2=O)C3=CC=CC=C3C)CN4C=NC5=C(N=CN=C54)N
The assay is described as above. Summed up:
as §1
Turning to PCCA (UniProt P05165), the log2 fold change is inactive: -0.077.
In the case of PEX11B (UniProt O96011), the log2 fold change was inactive: 0.001.
On the same count and under the same terms, for PFKFB3 isoform 4 (UniProt Q16875) the value was inactive: 0.057; for PCNT (UniProt O95613), inactive: 0.011.
PEBP1 (UniProt P30086): the log2 fold change was inactive: -0.021.
In the case of PARPBP (UniProt Q9NWS1), the log2 fold change is inactive: 0.179.
PCBP1 (UniProt Q15365): the log2 fold change is inactive: -0.03.
Turning to PDPR (UniProt Q8NCN5), the log2 fold change is inactive: 0.026.
On the same count and under the same terms, with PCF11 (UniProt O94913) the figure was inactive: 0.022; with PDIA6 isoform 2 (UniProt Q15084), inactive: 0.008; with PDAP1 (UniProt Q13442), inactive: 0.008.
Consider PBK (UniProt Q96KB5), for which the log2 fold change is inactive: 0.006.
Regarding PCBP2 (UniProt H3BRU6), the log2 fold change is inactive: -0.208.
As for PER3 isoform 2 (UniProt P56645), the log2 fold change was inactive: -0.054.
As to PELP1 (UniProt Q8IZL8), the log2 fold change was inactive: -0.059.
As to PDCD6IP (UniProt Q8WUM4), the log2 fold change was inactive: 0.037.
As to PDLIM7 (UniProt Q9NR12), the log2 fold change was inactive: 0.017.
Take PEX14 (UniProt O75381): the log2 fold change is inactive: -0.043.
Still for that read-out and setting: with PEX16 isoform 2 (UniProt Q9Y5Y5) the figure was inactive: -0.013.
On to PCYT1A (UniProt P49585), for which the log2 fold change was inactive: -0.034.
Take PEX13 (UniProt Q92968): the log2 fold change is inactive: 0.051.
Consider PAXBP1 (UniProt Q9Y5B6), for which the log2 fold change is inactive: 0.026.
For the target PDLIM1 (UniProt O00151), the log2 fold change was inactive: -0.024.
For the target PGGHG (UniProt Q32M88), the log2 fold change is inactive: -0.01.
The same measure, in the same setting: with PDIA3 (UniProt P30101) the figure was inactive: -0.023; with PFDN1 (UniProt O60925), inactive: -0.035; with PFKP (UniProt Q01813), inactive: 0.043.
With PCIF1 (UniProt Q9H4Z3), the log2 fold change was inactive: 0.026.
As for PARN (UniProt O95453), the log2 fold change was inactive: -0.003.
PDRG1 (UniProt Q9NUG6): the log2 fold change was inactive: -0.101.
Consider PDCL (UniProt Q13371), for which the log2 fold change was inactive: 0.051.
On to PDCD2L (UniProt Q9BRP1), for which the log2 fold change is inactive: -0.027.
On to PGAM4 (UniProt Q8N0Y7), for which the log2 fold change was inactive: 0.
On the same count and under the same terms, for PCBD1 (UniProt P61457) the value was inactive: -0.03; for PCYT2 isoform 3 (UniProt Q99447), inactive: 0.012.
In the case of PARVB (UniProt Q9HBI1), the log2 fold change is inactive: -0.04.
PFDN2 (UniProt Q9UHV9): the log2 fold change is inactive: -0.016.
For PBDC1 (UniProt Q9BVG4), the log2 fold change is inactive: -0.019.
Consider PCNX3 (UniProt Q9H6A9), for which the log2 fold change is inactive: 0.143.
Regarding PDF (UniProt Q9HBH1), the log2 fold change is inactive: -0.024.
